Results published in publication PMC4978918.
No constants are given. Whether binding was seen depends on the method and setting. In cells and extracts the contact can be indirect. Some entries that bind do so weakly or less than the wild type. Where a sequence is shown, tags or fusion partners need not be part of it.

Molecular target: T1, Scc4-3V5 (wild-type Scc4 tagged with three copies of the V5 epitope) (S. cerevisiae) (UniProt P40090)
T1 sequence: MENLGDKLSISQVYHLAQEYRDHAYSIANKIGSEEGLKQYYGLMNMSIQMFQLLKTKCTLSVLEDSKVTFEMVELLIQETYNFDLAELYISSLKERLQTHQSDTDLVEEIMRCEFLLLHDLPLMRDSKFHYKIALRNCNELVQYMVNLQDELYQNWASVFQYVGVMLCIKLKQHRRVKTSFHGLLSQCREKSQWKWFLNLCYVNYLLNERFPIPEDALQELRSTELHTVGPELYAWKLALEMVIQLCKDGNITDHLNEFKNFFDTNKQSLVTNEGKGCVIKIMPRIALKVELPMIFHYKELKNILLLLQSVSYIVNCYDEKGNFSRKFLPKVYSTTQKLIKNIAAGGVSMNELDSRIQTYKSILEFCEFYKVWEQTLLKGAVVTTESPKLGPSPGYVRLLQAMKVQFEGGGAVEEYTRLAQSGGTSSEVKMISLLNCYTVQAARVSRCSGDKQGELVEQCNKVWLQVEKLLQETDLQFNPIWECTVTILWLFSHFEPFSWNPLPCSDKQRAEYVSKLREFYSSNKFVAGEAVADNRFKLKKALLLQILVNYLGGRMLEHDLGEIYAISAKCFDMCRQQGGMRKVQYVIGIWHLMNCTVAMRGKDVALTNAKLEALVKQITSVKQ
Assay: co-IP; anti-V5 IP of Scc4-3V5 or scc4-RID-3V5 from yeast extracts, cells at midlog phase in YPD at 23°, IPH50 buffer (50 mM Tris pH 8.0, 50 mM NaCl, 5 mM EDTA, 0.5% NP-40), 4°; blot with anti-Myc (Scc2) or anti-HA (Smc1)

binding: binds
B1: Scc2-12Myc (protein, UniProt Q04002 1-1493)
chain: MSYPGKDKNIPGRIIEALEDLPLSYLVPKDGLAALVNAPMRVSLPFDKTIFTSADDGRDVNINVLGTANSTTSSIKNEAEKERLVFKRPSNFTSSANSVDYVPTNFLEGLSPLAQSVLSTHKGLNDSINIEKKSEIVSRPEAKHKLESVTSNAGNLSFNDNSSNKKTKTSTGVTMTQANLAEQYLNDLKNILDIVGFDQNSAEIGNIEYWLQLPNKKFVLTTNCLTKLQMTIKNITDNPQLSNSIEITWLLRLLDVMVCNIKFSKSSLKMGLDDSMLRYIALLSTIVLFNIFLLGKNDSNLHRESYIMEPVNFLSDLIESLKILTIEYGSLKIEFDTFQEALELLPKYIRNGPFLDDNVTAKLVYIFSDLLMNNDIEATTNIQFQSFWDNVKRISSDILVSLFGSFDQQRGFIIEELLSHIEKLPTKRIQKKLRKVGNQNIYITDFTFTLMSMLENINCYSFCNQMKDIAPENIDLLKNEYKKQEEFLFNIVEHINDTILERFFKNPSALRYVIDNFVQDLLLLISSPQWPVTEKILSSLLKRLLSVYSPSMQVSANIETICLQLIGNIGSTIFDIKCSTRDHEDNNLIKMINYPETLPHFFKSFEECIAYNETIKCRRSATRFLWNLRLGTILILEEYTKDAKEQIITVDNELKKILEQIKDGGLGPELENREADFSTIKLDYFSILHAFELLNLYDPYLKLILSLLAKDKIKLRSTAIKCLSMLASKDKVILSNPMVKETIHRRLNDSSASVKDAILDLVSINSSYFEFYQQINNNYNDDSIMVRKHVLRINEKMYDETNDIVTKVYVIARILMKIEDEEDNIIDMARLILLNRWILKVHEVLDQPEKLKEISSSVLLVMSRVAIMNEKCSQLFDLFLNFYLLNKEAHSKEAYDKITHVLTILTDFLVQKIVELNSDDTNEKNSIVDKQNFLNLLAKFADSTVSFLTKDHITALYPYMVSDEKSDFHYYILQVFRCTFEKLANFKQKFLYDLETTLLSRLPKMNVREIDEAMPLIWSVATHRHDTARVAKACSSCLSHLHPYINKANNEEAAIVVDGKLQRLIYLSTGFARFCFPKPSNDKIAFLQEGETLYEHITKCLLVLSKDKITHVIRRVAVKNLTKLCGNHPKLFNSRHVLHLLDKEFQSDQLDIKLVILESLYDLFLLEERKSVRNTGVNSTLSSNSILKKKLLKTNRVEFANDGVCSALATRFLDNILQLCLLRDLKNSLVAIRLLKLILKFGYTNPSHSIPTVIALFASTSQYIRHVAYELLEDLFEKYETLVFSSLSRGVTKAIHYSIHTDEKYYYKHDHFLSLLEKLCGTGKKNGPKFFKVLKRIMQSYLDDITDLTSTNSSVQKSIFVLCTNISNITFVSQYDLVSLLKTIDLTTDRLKEVIMDEIGDNVSSLSVSEEKLSGIILIQLSLQDLGTYLLHLYGLRDDVLLLDIVEESELKNKQLPAKKPDISKFSAQLENIEQYSSNGKLLTYFRKHVKDT
